{"source": "patent US5461142A", "about": "“Phosphorylated derivatives of cardiodilatin/ANF peptides” (Pharma Bissendorf Peptide GmbH, priority 1987, dated 1995)", "system": "rabbit aorta muscle strips", "test": "Bioactivity test: relaxation of norepinephrine-precontracted rabbit aorta muscle strips in organ bath", "type": "cell-based, New Zealand rabbits", "protocol": "Muscle strips of rabbit aorta were first contracted by the action of a solution of norepinephrine (10^-7 M). After constant conditions had been adjusted, the peptides were added (position of the arrow).\nThe muscle relaxation continues only after a further addition of unphosphorylated alpha-nANaP.\nAortae of New Zealand rabbits were prepared. The muscular tension was measured with a muscle strip in an organ bath containing physiological saline. The strips were pre-contracted with a solution of 10^-6 M of norepinephrin, then at fill relaxation. For the assay, a further contraction was induced with 10^-7 M of norepinephrin. After constant contraction conditions had been reached, the peptides were applied.\nAlpha-hANaP was phosphorylated according to EXAMPLE 1 in the presence of ATP and the catalytic subunit according to EXAMPLE 1. For control, unphosphorylated alpha-hANaP was incubated under the same conditions, however in the absence of ATP. […] Stepwise addition of unphosphorylated, phosphorylated and in turn unphosphorylated alpha-hANaP allows clearly to recognize that only unphosphorylated alpha-hANaP exerts a significant relaxing effect in comparison to phosphorylated peptide. If the addition is reversed, first phosphorylated, then unphosphorylated and again phosphorylated alpha-hANaP, the corresponding reversed relaxation effect is found. […]", "note": "“Also recorded” adds a separate entry of the source. At least one peptide structure holds a part that was inferred or is arguable (an end, a ring closure or a residue).", "data": [{"molecule": "CC[C@H](C)[C@@H]1NC(=O)[C@H](CCCNC(=N)N)NC(=O)[C@H](CC(=O)O)NC(=O)[C@H](CCSC)NC(=O)[C@H](CCCNC(=N)N)NC(=O)CNC(=O)CNC(=O)[C@H](Cc2ccccc2)NC(=O)[C@@H](NC(=O)[C@H](CO)NC(=O)[C@H](CO)NC(=O)[C@H](CCCNC(=N)N)NC(=O)[C@H](CCCNC(=N)N)NC(=O)[C@H](CC(C)C)NC(=O)[C@@H](N)CO)CSSC[C@@H](C(=O)N[C@@H](CC(N)=O)C(=O)N[C@@H](CO)C(=O)N[C@@H](Cc2ccccc2)C(=O)N[C@@H](CCCNC(=N)N)C(=O)N[C@@H](Cc2ccc(O)cc2)C(=O)O)NC(=O)CNC(=O)[C@H](CC(C)C)NC(=O)CNC(=O)[C@H](CO)NC(=O)[C@H](CCC(N)=O)NC(=O)[C@H](C)NC(=O)CNC1=O", "note": "[unphosphorylated CDD-28, reference compound]", "values": [{"measurement": "effect onto the smooth vascular musculature (relaxation)", "setting": "FIG. 5, strips contracted with norepinephrine 10^-7 M, peptide final concentration 0.3 to 0.6×10^-9 M", "value": "typical relaxation behavior"}, {"measurement": "muscle relaxation of precontracted rabbit aorta strips", "setting": "FIG. 7 / Example 5, final concentration 0.3×10^-9 M, stepwise addition, listed as unphosphorylated alpha-hANaP", "value": "relaxed to some degree; also recorded: partially relaxes"}]}]}
